Measurements as given in PubChem BioAssay AID493014 (National Center for Advancing Translational Sciences (NCATS), 2011).
The other results are listed elsewhere or left out. These are further read-outs of the screen, such as a control signal, another cell line or another target. No call is given for them. Compounds called inactive in the main read-out are mostly missing here. Potencies come from curve fits of mixed quality, noted in brackets.

Test: qHTS Assay to Find Inhibitors of Chronic Active B-Cell Receptor Signaling
Details: ABC-DLBCL IkBa-CBG/CBR reporter, luminescence ratio (green luciferase fused to IkBa over red control in TMD8 lymphoma cells), 4 h
Method in brief: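 Doxycycline induced both beetle luciferases in TMD8 lymphoma cells; IKK-driven degradation limits the IkappaBalpha-fused green signal, while red luminescence normalises for cell number and nonspecific effects. Compounds tested up to 46 uM, 4 hrs.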

[1] = measured here: CBR red luminescence, cell number
[2] = measured here: IkBa-CBG green luminescence

With `CCOC(=O)Cc1csc(NC(=O)c2ccc(N3CCOCC3)cc2[N+](=O)[O-])n1` the AC50 [1] was 25.9 µM [falling, partial curve].
In the case of `CC(=O)N(C(C)=O)C1=C(C#N)C2(CCCCC2)Cc2ccccc21`, the AC50 [1] is reported as 17.8 µM [falling, single point].
With `O=[N+]([O-])c1ccc(-n2ccnc2)cc1` the AC50 [1] was 35.5 µM [rising, single point].
With `Cc1ccnc(SCC(=O)Nc2sc3c(c2C#N)CCCC3)n1` the AC50 [1] was 3.55 µM [rising, partial curve, poor fit].
For `Cc1cccc(NC(=O)CN(c2ccc(F)cc2)S(C)(=O)=O)c1`, the AC50 [1] was 8.91 µM [falling, partial curve, poor fit] and the AC50 [2] was 10 µM [rising, partial curve, poor fit].
For `CCC(=O)OCC(=O)N=c1sccn1Cc1ccc(C)cc1`, the AC50 [1] was 14.1 µM [falling, single point].
With `O=C(CN1CCCCC1)N/N=C/c1ccccc1OCc1ccccc1` the AC50 [1] was 6.51 µM [rising, single point].
For `COc1cc(C(C[N+](=O)[O-])c2c(-c3ccccc3)cc3ccccn23)cc(OC)c1OC` (configuration not stated), the AC50 [1] was 11.6 µM [falling, partial curve].
For `CCOC(=O)C1CCCN(C(c2ccccn2)c2c(C)[nH]c3ccccc23)C1` (configuration not stated), the AC50 [1] was 22.4 µM [falling, single point].
In the case of `COc1ccc(C(=O)c2ccc(Cl)c([N+](=O)[O-])c2)cc1`, the AC50 [2] is reported as 7.31 µM [falling, partial curve].
For `Cc1ccc(S(=O)(=O)NC(=O)Nc2ccc(N(C)C)cc2)cc1`, the AC50 [1] was 7.08 µM [falling, partial curve].
With `COc1ccc(C)cc1NC(=O)c1ccc(OC(F)F)cc1` the AC50 [1] was 0.231 µM [rising, full curve, poor fit].
With `CCOC(=O)c1c(NC(=O)CSc2nnc(C)c(=O)[nH]2)sc2c1CCC2` the AC50 [1] was 23.1 µM [rising, partial curve, poor fit].
In the case of `FCCCOc1ccc(-c2nccc(-c3ccc(F)cc3)n2)cc1`, the AC50 [1] is reported as 13 µM [rising, single point].
In the case of `O=C1c2ccccc2C(=O)N1c1nc(-c2cccs2)cs1`, the AC50 [1] is reported as 14.6 µM [falling, partial curve].
With `CC(=C1C(=O)c2ccccc2C1=O)N1CCN(c2ccc(F)cc2)CC1` the AC50 [1] was 22.4 µM [falling, single point].
In the case of `CC1CC1C(=O)OCC(=O)NCc1ccccc1Cl` (configuration not stated), the AC50 [1] is reported as 25.9 µM [falling, single point].
With `O=C(CCN1C(=O)C2C3C=CC(C3)C2C1=O)N1CCN(c2ccccc2F)CC1` (configuration not stated) the AC50 [1] was 6.51 µM [rising, partial curve, poor fit].
With `Clc1ccccc1-c1nc(-c2ccncc2)no1` the AC50 [1] was 35.5 µM [falling, single point].
For `COC(=O)C1=C(C)NC(C)=C(C(=O)OCC2CCCO2)C1c1cccc(Br)c1` (configuration not stated), the AC50 [1] was 25.1 µM [falling, single point].
In the case of `C/C(=C\C(=O)OCC(=O)NCc1ccccc1)C(=O)OCC(=O)NCc1ccccc1`, the AC50 [1] is reported as 6.51 µM [falling, partial curve] and the AC50 [2] is reported as 29.1 µM [rising, partial curve, poor fit].
In the case of `C/C(=N\NC(=O)c1cc(-c2cccc([N+](=O)[O-])c2)n[nH]1)c1ccc(F)cc1`, the AC50 [1] is reported as 6.31 µM [rising, single point].
With `COc1cc(OC)cc(C(=O)NCCn2ccc3ccccc32)c1` the AC50 [1] was 5.01 µM [falling, partial curve].
For `Cc1ccc(N2CS(=O)(=O)/C(=C/N(C)C)C2=O)cc1`, the AC50 [1] was 20 µM [rising, single point].
In the case of `CN(C(=O)CSc1nnc(C2CC2)n1-c1ccccc1)C1CCS(=O)(=O)C1` (configuration not stated), the AC50 [1] is reported as 2.91 µM [rising, partial curve].
With `COCCn1c(=S)[nH]c2cc(C(=O)N3CC(C)CC(C)C3)ccc2c1=O` (configuration not stated) the AC50 [1] was 0.112 µM [falling, full curve, poor fit].
For `COc1ccc(OC)c(CN2CCN(C(=O)c3cccs3)CC2)c1`, the AC50 [1] was 3.55 µM [rising, partial curve, poor fit].
In the case of `COc1ccc(C)cc1NC(=O)CSc1nc(=O)n(Cc2cccnc2)c2c1CCC2`, the AC50 [1] is reported as 8.91 µM [falling, partial curve, poor fit].
With `CC(C)Cc1ccc(/C=C/C(=O)NC2CC2)cc1` the AC50 [1] was 4.11 µM [rising, partial curve, poor fit].
With `CCOC(=O)c1c(C)nc2sc3c(c2c1-c1ccc(OC)cc1)NC(c1ccc(OC)cc1)NC3=O` (configuration not stated) the AC50 [1] was 2.82 µM [rising, partial curve, poor fit].
In the case of `CCNC(=O)c1cccc(NC(=O)c2cc(C3CC3)nc3c2cnn3C(C)C)c1`, the AC50 [1] is reported as 0.731 µM [rising, full curve, poor fit].
For `FC(F)(F)c1cccc(Cc2noc(CN3CCC(N4CCCCC4)CC3)n2)c1`, the AC50 [1] was 0.891 µM [rising, full curve, poor fit].
With `O=C(Nc1cc(C(F)(F)F)ccc1-n1cncn1)c1ccc(Cl)cc1` the AC50 [1] was 0.00461 µM [rising, full curve, poor fit].
With `CC1CCCN(CC(=O)Nc2cc(Cl)ccc2Oc2ccccc2)C1` (configuration not stated) the AC50 [1] was 14.1 µM [rising, single point].
For `Cc1cc(C)c(S(=O)(=O)N2CCN(C(=O)c3cc4ccccc4oc3=O)CC2)c(C)c1`, the AC50 [1] was 25.9 µM [rising, partial curve].
For `O=C(CSc1ccccc1)Nc1ccc(S(=O)(=O)NCC2CCCO2)cc1` (configuration not stated), the AC50 [1] was 16.4 µM [falling, single point].
With `CC1=CC(c2ccccc2)n2nc(NC(=O)CCCC(=O)O)nc2N1` (configuration not stated) the AC50 [1] was 0.1 µM [rising, full curve, poor fit].
For `COCCCNC(=O)c1cc2c(=O)n3cc(C)ccc3nc2nc1NCC1CCCO1` (configuration not stated), the AC50 [1] was 0.103 µM [falling, full curve, poor fit].
In the case of `O=C(Cn1nc(C(=O)O)c2ccccc2c1=O)Nc1cccc(S(=O)(=O)N2CCOCC2)c1`, the AC50 [1] is reported as 14.6 µM [rising, partial curve, poor fit].
With `COc1ccccc1C1CCN(C(=S)Nc2ccc(Br)cc2)CC1` the AC50 [1] was 2.82 µM [rising, partial curve].
In the case of `Cc1nc2ccc(NC(=O)c3cc([N+](=O)[O-])cc([N+](=O)[O-])c3Cl)cc2s1`, the AC50 [1] is reported as 29.1 µM [falling, single point].
In the case of `CCOc1ccc2[nH]c3ncccc3c(=O)c2c1`, the AC50 [1] is reported as 3.55 µM [falling, partial curve, poor fit].
In the case of `Cc1cccc(OCC(=O)Nc2cccc(O)c2)c1`, the AC50 [1] is reported as 0.517 µM [falling, full curve, poor fit].
In the case of `Cc1ccc(C(=O)CN(C(=O)c2ccc(Cl)cc2)N2C(=O)c3ccccc3C2=O)cc1`, the AC50 [1] is reported as 14.1 µM [rising, single point].
In the case of `COc1ccc(COc2cc(-c3cccc(OC)c3)nc3ccc(N)cc23)cc1`, the AC50 [1] is reported as 2.91 µM [rising, single point] and the AC50 [2] is reported as 5.17 µM [falling, full curve].
With `COC(=O)c1cc(Br)c(=O)n(-c2ccc(C(C)=O)cc2)c1` the AC50 [1] was 6.31 µM [rising, partial curve, poor fit].
With `COCCCNC(=O)Cc1c(C)c2c(cc(C)c3c(C(C)(C)C)coc32)oc1=O` the AC50 [1] was 35.5 µM [falling, single point] and the AC50 [2] was 5.62 µM [falling, single point].
With `O=C(NC1=NCCS1)c1cc(-c2ccccc2)nn1-c1ccccc1` the AC50 [1] was 0.501 µM [rising, full curve].
For `O=S(=O)(c1ccccc1)c1nc(-c2ccccc2F)oc1NCc1cccnc1`, the AC50 [1] was 5.01 µM [rising, full curve, poor fit].
For `NS(=O)(=O)c1ccc(NC(=O)c2cc(-c3cccs3)nc3ccccc23)cc1`, the AC50 [1] was 1.16 µM [falling, partial curve] and the AC50 [2] was 2.91 µM [rising, full curve].
For `CC1=CC(C)(C)n2c(O)c(N=NC(N)=S)c3c(C)ccc1c32`, the AC50 [1] was 29.1 µM [falling, partial curve, poor fit].
With `CCOc1cc(C(=O)CCC(=O)OCC(=O)N2c3ccccc3NC(=O)C2(C)C)ccc1O` the AC50 [1] was 29.1 µM [falling, partial curve, poor fit].
For `COc1ccccc1NS(=O)(=O)c1ccc2c(c1)N(C(C)=O)CC(C)S2` (configuration not stated), the AC50 [1] was 14.1 µM [falling, partial curve, poor fit].
For `COc1ccc(NC2CCCN(C(=O)CCc3scnc3C)C2)cc1` (configuration not stated), the AC50 [1] was 3.98 µM [rising, single point].
For `Cc1cc(NCC2CCCCC2)nc2ccccc12`, the AC50 [1] was 7.94 µM [rising, partial curve, poor fit].
For `CCOC(=O)c1nn(-c2ccccc2C)c2nc(-c3ccc(Cl)cc3)c(C#N)c(=O)n12`, the AC50 [1] was 18.4 µM [falling, single point] and the AC50 [2] was 23.1 µM [rising, partial curve, poor fit].
With `C=CCOC(=O)C1=C(C)Nc2ncnn2C1c1cc(Br)ccc1F` (configuration not stated) the AC50 [1] was 5.62 µM [falling, full curve, poor fit].
With `COc1cccc(C(=O)CSc2nccn2C)c1` the AC50 [1] was 25.1 µM [falling, single point].
With `Cc1ccnc(NC(=O)CNC(=O)Cc2cccc3ccccc23)c1` the AC50 [1] was 10.3 µM [falling, partial curve, poor fit].
With `Cc1ccc(/C=C(\C#N)C(=O)Nc2cccc3ncccc23)o1` the AC50 [1] was 25.9 µM [falling, single point].
For `CC(C)NS(=O)(=O)c1ccc(CCC(=O)N2CCOCC2)cc1`, the AC50 [1] was 0.00517 µM [falling, full curve, poor fit].
